# Results reported in patent EP1944378A2, “Diagnostic and screening method” (Orgenium Laboratories Oy, priority 2006, dated 2008).
# For at least one compound, name, drawing or mass did not settle the structure.
# Legend:
# [1] = molecular target: T1, glucocorticoid receptor (Homo sapiens, UniProt P04150); assay: Method of the invention: GR in blood lymphocytes of asthmatic and non-asthmatic volunteers after drug treatment (double blind, randomized trial); format: in vivo; settings: 12:00 p.m., inhaled 800 µg budesonide or 48 µg formoterol
# T1 construct: endogenous in cells; host or cells: cultured primary human airway smooth muscle cells (nuclear and cytosolic extracts)
# T1 sequence (P04150 1-777): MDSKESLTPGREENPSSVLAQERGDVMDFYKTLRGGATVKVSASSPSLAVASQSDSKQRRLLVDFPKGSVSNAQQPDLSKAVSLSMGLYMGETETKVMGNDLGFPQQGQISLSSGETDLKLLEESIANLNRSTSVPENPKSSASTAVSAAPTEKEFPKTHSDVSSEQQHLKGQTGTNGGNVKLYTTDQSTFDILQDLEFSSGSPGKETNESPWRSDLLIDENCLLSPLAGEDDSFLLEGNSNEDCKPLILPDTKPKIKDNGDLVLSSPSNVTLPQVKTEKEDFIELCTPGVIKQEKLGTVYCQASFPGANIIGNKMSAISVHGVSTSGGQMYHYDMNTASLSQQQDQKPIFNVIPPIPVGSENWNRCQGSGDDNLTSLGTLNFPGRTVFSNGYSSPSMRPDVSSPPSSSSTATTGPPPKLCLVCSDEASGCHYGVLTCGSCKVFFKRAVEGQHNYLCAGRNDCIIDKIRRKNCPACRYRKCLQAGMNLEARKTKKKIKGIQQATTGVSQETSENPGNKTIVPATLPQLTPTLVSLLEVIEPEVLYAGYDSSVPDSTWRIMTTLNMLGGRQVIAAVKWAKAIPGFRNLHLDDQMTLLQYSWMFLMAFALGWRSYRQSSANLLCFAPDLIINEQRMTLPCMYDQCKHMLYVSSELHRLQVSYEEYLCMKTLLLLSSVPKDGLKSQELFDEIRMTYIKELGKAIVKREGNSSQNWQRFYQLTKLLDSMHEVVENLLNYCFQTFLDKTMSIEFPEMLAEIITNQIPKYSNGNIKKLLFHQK
# [2] = molecular target: T1, glucocorticoid receptor; assay: Method of the invention: total GR in nuclear and cytosolic extracts of treated primary airway smooth muscle cells; format: cell-based
smiles,measurement,setting,value
"CCCC1O[C@@H]2C[C@H]3[C@@H]4CCC5=CC(=O)C=C[C@]5(C)[C@H]4[C@@H](O)C[C@]3(C)[C@]2(C(=O)CO)O1 (some centres unmarked) [Budesonide, budesonide]",nuclear GR abundance,[1]; Asthmatics (3),859 ± 159 pg/µL
same,nuclear GR abundance,[1]; Non-asthmatics (4),545 ± 203 pg/µL
same,cytosolic pg/µl of GR,"[2]; 30 min, 10^-8 M",90 pg/µL
same,nuclear pg/µl of GR,"[2]; 30 min, 10^-8 M",207 pg/µL
same,cytosolic pg/µl of GR,"[2]; 1 h, 10^-8 M",51 pg/µL
same,nuclear pg/µl of GR,"[2]; 1 h, 10^-8 M",339 pg/µL
same,cytosolic pg/µl of GR,"[2]; 3 h, 10^-8 M",46 pg/µL
same,nuclear pg/µl of GR,"[2]; 3 h, 10^-8 M",252 pg/µL
same,cytosolic pg/µl of GR,"[2]; 6 h, 10^-8 M",37 pg/µL
same,nuclear pg/µl of GR,"[2]; 6 h, 10^-8 M",107 pg/µL
same,cytosolic pg/µl of GR,"[2]; 24 h, 10^-8 M",106 pg/µL
same,nuclear pg/µl of GR,"[2]; 24 h, 10^-8 M",25 pg/µL
same,cytosolic pg/µl of GR,"[2]; time 0, 10^-8 M",242 pg/µL
same,nuclear pg/µl of GR,"[2]; time 0, 10^-8 M",94 pg/µL
